These are yes or no findings as the source states them, for the method shown. Some results given as binding are weak or reduced against the parent protein; the word gives no strength.

We go through one molecule from patent publication US20160176955A1.

This experiment deals with peptide 9 (amino acids 81-95 of CSP) (Plasmodium falciparum). As to the kind of experiment: indirect ELISA, 15-mer peptide mapping. (In an ELISA, binding on a coated surface is turned into a signal by an enzyme label.)

B1: monoclonal antibody (mAb) 5D5 (antibody, V domains shown)
VH: QVHLQQSGGEVARPGASVKLSCKASGYTFTGYGLSWVKQRTGQGLEWIGEIYPRSGNTYYNEKFKGKATLTADKSSSTAYMELRSLTSEDSAVYFCARSWGNSSFVYWGQGTLVTVSA
VL: SIVMTQTPKFLLVSAGDRVTITCKASQSVTNDVTWYQQKPGQSPKLLIYYASNRYTGVPDRFTGSGYGTDFTFTISTVQAEDLAVYFCQQDYSSPFTFGSGTKLEIKR
In the case of B1, the binding result was “binds”.
